# Experimental data: patent US6443945B1, “Laser assisted pharmaceutical delivery and fluid removal” (Transmedica International, Inc., priority 1993, dated 2002)
# Details: 60 mJ pulse plus 30% lidocaine solution, one volunteer
smiles,measurement,value
"CCN(CC)CC(=O)Nc1c(C)cccc1C [Lidocaine, lidocaine]",irritation / need for medical treatment,no irritation
